# Measured values published in the supplement of paper PMC10849652.
# By UniProt entry, the sequences of proteins in these tests, tags left out. Where a name states a change or a piece, a line headed by the entry shows the natural chain unless it says otherwise.
# UniProt P52943: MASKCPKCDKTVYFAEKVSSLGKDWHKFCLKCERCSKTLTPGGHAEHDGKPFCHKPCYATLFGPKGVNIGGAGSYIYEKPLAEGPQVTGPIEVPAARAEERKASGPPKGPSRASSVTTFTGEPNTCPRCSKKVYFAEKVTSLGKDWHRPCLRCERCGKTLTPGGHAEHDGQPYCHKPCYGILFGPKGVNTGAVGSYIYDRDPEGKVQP
# UniProt Q8N6G5: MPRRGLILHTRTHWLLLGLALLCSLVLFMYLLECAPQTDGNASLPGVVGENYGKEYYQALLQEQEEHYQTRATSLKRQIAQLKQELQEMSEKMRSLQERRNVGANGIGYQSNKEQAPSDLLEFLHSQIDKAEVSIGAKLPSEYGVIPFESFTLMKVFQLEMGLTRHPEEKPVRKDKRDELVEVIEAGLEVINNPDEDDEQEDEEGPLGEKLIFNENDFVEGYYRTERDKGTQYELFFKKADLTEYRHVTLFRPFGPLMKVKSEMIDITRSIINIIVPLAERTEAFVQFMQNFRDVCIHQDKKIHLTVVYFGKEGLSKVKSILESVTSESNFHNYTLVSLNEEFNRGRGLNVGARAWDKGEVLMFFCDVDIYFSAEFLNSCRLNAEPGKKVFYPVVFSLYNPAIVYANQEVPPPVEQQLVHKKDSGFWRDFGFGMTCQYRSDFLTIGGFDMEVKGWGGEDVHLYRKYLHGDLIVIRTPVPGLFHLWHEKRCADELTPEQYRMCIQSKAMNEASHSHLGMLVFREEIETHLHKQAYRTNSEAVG
# UniProt P46108: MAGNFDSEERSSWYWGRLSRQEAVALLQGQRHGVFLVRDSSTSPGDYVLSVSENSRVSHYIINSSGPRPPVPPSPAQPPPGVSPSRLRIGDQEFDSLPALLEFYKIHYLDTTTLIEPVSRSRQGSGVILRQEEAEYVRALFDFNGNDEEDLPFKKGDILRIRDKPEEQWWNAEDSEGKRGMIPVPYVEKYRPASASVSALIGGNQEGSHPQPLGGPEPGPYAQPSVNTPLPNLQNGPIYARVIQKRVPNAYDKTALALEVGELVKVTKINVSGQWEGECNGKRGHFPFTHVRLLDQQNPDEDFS
# UniProt Q8IUI8: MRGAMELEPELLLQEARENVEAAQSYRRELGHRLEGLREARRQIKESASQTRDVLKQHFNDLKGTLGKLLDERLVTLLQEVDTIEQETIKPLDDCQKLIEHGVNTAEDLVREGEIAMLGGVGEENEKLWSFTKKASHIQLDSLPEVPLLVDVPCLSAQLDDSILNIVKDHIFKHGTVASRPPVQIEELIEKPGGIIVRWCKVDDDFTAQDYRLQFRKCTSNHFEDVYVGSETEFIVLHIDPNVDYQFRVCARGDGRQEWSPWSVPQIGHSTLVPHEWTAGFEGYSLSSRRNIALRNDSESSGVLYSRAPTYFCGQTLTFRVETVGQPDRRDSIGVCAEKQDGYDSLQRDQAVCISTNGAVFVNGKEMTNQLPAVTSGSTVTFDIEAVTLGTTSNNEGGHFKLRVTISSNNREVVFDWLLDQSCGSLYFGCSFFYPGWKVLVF
# UniProt O75390: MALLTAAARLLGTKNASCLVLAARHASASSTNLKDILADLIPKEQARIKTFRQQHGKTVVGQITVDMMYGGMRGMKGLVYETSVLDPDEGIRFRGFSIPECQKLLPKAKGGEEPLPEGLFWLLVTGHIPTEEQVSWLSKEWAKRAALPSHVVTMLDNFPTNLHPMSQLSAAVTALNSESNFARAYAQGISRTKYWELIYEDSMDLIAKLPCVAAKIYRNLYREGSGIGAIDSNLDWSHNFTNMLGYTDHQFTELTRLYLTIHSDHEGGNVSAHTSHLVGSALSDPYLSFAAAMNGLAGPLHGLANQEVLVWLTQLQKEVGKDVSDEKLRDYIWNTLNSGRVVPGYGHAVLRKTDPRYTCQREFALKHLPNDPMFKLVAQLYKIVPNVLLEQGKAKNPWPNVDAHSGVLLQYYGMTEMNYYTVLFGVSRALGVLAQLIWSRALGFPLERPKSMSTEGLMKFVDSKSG
# UniProt Q8N668, whole entry, looked up: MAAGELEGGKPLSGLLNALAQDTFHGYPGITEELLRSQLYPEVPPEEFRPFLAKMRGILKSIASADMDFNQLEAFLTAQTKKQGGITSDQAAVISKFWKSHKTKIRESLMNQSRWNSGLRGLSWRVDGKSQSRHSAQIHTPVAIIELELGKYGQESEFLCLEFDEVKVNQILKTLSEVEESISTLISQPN
# UniProt Q7KZN9: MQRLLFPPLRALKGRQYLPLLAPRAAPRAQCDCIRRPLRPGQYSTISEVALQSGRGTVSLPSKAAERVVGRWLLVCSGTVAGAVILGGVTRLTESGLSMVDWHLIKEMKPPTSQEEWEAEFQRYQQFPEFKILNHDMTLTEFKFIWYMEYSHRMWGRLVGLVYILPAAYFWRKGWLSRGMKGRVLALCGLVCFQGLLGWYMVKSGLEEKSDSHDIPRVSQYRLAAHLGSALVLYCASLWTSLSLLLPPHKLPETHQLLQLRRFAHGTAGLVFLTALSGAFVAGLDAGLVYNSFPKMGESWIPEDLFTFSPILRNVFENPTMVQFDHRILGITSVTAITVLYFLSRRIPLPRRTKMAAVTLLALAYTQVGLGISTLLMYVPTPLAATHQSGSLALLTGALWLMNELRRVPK
# UniProt P20674, whole entry, looked up: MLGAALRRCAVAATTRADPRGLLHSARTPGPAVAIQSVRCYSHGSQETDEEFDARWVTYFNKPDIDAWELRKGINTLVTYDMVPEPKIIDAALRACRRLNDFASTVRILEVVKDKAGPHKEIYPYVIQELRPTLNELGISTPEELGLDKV
# UniProt P49747: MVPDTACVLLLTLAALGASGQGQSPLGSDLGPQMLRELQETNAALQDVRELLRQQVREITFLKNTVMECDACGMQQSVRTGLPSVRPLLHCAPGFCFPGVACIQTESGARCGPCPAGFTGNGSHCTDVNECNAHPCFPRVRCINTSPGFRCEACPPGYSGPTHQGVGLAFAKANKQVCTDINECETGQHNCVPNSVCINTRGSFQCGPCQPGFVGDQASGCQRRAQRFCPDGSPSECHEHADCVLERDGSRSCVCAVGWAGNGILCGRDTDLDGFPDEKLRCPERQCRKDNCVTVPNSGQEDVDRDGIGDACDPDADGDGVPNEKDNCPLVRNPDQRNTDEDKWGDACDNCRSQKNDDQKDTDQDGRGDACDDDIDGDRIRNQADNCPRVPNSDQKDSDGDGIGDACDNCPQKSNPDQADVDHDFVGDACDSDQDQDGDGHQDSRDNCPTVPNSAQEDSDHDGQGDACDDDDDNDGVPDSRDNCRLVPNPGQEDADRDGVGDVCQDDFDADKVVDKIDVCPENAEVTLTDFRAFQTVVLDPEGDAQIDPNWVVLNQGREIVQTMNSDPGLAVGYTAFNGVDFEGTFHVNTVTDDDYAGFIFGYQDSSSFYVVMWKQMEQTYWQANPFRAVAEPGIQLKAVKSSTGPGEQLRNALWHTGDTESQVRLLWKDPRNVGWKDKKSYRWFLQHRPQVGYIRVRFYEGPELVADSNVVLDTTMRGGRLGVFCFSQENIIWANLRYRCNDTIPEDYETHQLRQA
# UniProt P50416: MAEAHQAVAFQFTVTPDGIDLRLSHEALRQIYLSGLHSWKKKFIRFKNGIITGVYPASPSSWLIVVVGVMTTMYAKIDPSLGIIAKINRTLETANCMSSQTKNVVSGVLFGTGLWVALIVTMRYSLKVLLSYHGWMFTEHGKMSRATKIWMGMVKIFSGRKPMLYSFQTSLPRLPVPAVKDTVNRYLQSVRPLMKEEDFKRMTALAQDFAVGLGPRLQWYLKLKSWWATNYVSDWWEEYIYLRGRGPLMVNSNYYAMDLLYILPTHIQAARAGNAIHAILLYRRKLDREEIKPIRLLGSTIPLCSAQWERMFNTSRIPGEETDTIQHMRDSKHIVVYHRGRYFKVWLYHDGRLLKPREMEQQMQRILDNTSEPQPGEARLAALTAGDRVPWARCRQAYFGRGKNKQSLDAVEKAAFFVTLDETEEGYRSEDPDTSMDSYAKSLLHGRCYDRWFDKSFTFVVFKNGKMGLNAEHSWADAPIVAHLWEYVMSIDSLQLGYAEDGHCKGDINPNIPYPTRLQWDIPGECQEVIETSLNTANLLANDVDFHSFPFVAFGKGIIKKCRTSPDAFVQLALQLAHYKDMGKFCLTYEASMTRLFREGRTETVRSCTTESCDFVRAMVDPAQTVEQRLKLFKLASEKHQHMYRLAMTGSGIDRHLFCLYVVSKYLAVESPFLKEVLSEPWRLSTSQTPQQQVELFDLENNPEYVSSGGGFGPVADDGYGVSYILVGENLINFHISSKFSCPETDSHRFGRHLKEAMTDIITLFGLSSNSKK
# UniProt P24311, whole entry, looked up: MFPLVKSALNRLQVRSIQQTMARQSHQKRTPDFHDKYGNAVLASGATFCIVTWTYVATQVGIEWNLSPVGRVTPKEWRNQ
# UniProt P41240: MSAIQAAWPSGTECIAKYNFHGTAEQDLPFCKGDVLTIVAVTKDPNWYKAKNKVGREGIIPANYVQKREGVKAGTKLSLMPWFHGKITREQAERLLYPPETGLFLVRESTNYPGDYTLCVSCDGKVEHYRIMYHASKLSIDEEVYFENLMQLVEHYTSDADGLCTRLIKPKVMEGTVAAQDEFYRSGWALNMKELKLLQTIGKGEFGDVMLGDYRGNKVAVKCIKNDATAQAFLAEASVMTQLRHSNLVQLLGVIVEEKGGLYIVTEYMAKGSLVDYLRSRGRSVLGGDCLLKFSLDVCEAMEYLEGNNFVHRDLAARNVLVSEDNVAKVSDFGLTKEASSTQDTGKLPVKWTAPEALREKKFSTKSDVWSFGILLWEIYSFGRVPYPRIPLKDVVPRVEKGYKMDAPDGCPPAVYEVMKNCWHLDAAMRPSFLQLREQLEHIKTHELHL
# UniProt P12109: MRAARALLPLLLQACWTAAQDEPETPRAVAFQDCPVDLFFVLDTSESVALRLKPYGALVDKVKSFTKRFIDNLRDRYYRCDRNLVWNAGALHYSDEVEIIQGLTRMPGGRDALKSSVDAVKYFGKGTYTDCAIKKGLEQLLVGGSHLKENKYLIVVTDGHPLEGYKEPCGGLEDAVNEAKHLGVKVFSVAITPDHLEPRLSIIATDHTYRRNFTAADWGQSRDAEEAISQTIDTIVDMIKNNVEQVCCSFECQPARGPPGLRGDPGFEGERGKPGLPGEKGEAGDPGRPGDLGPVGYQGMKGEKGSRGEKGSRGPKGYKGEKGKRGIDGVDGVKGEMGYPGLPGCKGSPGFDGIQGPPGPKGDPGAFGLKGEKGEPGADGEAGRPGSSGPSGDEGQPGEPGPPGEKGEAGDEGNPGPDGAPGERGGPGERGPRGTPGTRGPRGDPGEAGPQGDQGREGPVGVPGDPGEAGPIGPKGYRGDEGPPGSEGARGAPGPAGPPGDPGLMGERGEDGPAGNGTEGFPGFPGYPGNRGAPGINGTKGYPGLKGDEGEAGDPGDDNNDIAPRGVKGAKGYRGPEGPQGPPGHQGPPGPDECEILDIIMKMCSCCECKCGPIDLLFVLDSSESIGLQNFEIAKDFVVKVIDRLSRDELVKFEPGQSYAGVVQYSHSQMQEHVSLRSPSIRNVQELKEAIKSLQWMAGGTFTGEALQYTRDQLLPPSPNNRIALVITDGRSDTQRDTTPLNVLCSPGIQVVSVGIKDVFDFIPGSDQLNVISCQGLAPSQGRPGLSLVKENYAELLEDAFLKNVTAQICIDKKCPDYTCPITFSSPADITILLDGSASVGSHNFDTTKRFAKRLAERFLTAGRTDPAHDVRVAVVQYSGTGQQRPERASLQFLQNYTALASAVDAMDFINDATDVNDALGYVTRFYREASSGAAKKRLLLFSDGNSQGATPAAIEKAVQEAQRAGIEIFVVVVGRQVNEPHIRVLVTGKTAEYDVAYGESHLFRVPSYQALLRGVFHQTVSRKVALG
# UniProt Q14894: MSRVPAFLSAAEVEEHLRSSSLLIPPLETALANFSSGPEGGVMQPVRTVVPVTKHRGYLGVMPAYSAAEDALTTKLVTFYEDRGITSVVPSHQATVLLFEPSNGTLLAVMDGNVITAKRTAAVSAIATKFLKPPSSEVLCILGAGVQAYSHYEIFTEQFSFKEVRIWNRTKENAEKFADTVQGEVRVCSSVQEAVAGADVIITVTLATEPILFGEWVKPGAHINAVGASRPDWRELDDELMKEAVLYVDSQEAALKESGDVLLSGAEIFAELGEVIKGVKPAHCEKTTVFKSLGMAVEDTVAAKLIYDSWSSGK
# UniProt Q14061: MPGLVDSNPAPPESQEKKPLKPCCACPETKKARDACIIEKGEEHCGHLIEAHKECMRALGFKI
# UniProt Q9HCP0: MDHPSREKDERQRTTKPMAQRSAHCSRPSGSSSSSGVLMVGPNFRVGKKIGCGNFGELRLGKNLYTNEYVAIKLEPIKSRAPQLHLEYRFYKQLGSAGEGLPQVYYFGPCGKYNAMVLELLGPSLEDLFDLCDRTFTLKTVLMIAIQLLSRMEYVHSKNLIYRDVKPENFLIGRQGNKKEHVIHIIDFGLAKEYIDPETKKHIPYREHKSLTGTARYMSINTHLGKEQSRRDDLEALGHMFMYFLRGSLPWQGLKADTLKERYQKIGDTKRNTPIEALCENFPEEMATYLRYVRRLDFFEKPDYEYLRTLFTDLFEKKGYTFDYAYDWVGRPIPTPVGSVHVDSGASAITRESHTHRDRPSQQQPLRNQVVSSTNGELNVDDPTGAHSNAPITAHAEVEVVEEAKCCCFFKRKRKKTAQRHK
# This is one part of the list. Residues, ends and D or L forms follow the SMILES beside them. *: point of attachment. Cbz = O=C(OCc1ccccc1)*
# Legend:
# Experiment in all cases: log2 fold change, soluble protein after heating vs DMSO (PISA); higher = thermal stabilisation; K562 cells, 10 uM, 30 min; active = over 0.2 and 3.5 SD of the protein, either way, in both replicates (recomputed)
# [1] = compound: C1COCCN1CCN2C3=CC=CC=C3N=C2NC(=O)C4=CC(=CC=C4)[N+](=O)[O-] [IRAK-1-4 Inhibitor I]
# How it was run: (§1)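 K562 cells (2×10^6 cells/mL) were treated with 10 μM compound for 30 min, and aliquots were heated for 3 min over 48°C-58°C. Pooled aliquots were extracted in PBS with 0.5% NP-40 at 4°C, and the supernatant after 21,000xg for 90 min was measured by TMTpro 16plex LC-MS/MS with channel sums equalised. Reported thermal stability, relative to control samples and from duplicates, is a log2 fold change.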
# [2] = compound: C=CC(=O)N1CCC[C@@H](n2nc(-c3ccc(Oc4ccccc4)cc3)c3c(N)ncnc32)C1 [ibrutinib]
# How it was run: as §1
# [3] = compound: CC(=O)c1cnc2ccc(-c3cc(Cl)c(O)c(Cl)c3)nc2c1N[C@H]1CC[C@H](CN(C)C)CC1
# How it was run: as §1
# [4] = compound: CC(C)(C)Cn1c(N)nc2ccc(-c3[nH]c(C(C)(C)C)nc3-c3ccc(F)cc3)nc21 [ralimetinib]
# How it was run: as §1
# [5] = compound: CC(C)(O)CC(=O)NCCn1ccc2ncnc(Nc3ccc(Oc4cccc(C(F)(F)F)c4)c(Cl)c3)c21
# How it was run: as §1
# [6] = compound: CC(C)C1=C2N=C(C=C(N2N=C1)NCC3=CC=CC=C3)NCCCCCCN
# How it was run: as §1
# [7] = compound: CC(C)C[C@@H](C=O)NC(=O)[C@H](CC(C)C)NC(=O)[C@H](CC(C)C)NC(=O)OCc1ccccc1
# How it was run: as §1
# [8] = compound: CC(C)N(C[C@H]1O[C@@H](n2cnc3c(N)ncnc32)[C@H](O)[C@@H]1O)[C@H]1C[C@@H](CCc2nc3cc(C(C)(C)C)ccc3[nH]2)C1 [pinometostat]
# How it was run: as §1
# [9] = compound: CC1=C(C2=C(C=C1)C(=O)C3=CC=CC=C3N2CCCN)C
# How it was run: as §1
# [10] = compound: CC1=C(C(CC(=O)N1)C2=CC=C(C=C2)C(F)(F)F)C(=O)NC3=C(C=C4C(=C3)C=NN4)F
# How it was run: as §1
Target,log2 fold change [1],log2 fold change [2],log2 fold change [3],log2 fold change [4],log2 fold change [5],log2 fold change [6],log2 fold change [7],log2 fold change [8],log2 fold change [9],log2 fold change [10]
CPSF7 isoform 3 (UniProt Q8N684),inactive: -0.037,inactive: 0,active: -0.242,inactive: 0.003,inactive: -0.002,inactive: 0.02,inactive: -0.045,inactive: -0.028,active: 0.236,–
CRIP2 isoform 2 (UniProt P52943),inactive: 0.023,inactive: -0.015,inactive: 0.06,–,inactive: 0.027,inactive: -0.103,–,inactive: 0.016,inactive: -0.283,inactive: -0.026
CSGALNACT2 (UniProt Q8N6G5),inactive: 0.078,inactive: -0.071,inactive: 0.036,–,inactive: -0.128,–,–,inactive: 0.009,–,inactive: 0.101
CSE1L (UniProt P55060),inactive: 0.001,inactive: -0.028,inactive: 0.033,inactive: -0.011,inactive: -0.144,inactive: -0.145,inactive: -0.029,inactive: -0.027,inactive: -0.02,–
COPS3 isoform 2 (UniProt Q9UNS2),inactive: 0.098,inactive: -0.015,inactive: -0.191,inactive: -0.214,inactive: -0.097,–,inactive: 0.258,inactive: 0.071,inactive: 0.053,–
CPSF3 (UniProt Q9UKF6),inactive: -0.044,inactive: -0.04,inactive: 0.026,inactive: -0.006,inactive: 0.028,inactive: -0.052,inactive: 0.035,inactive: 0.036,inactive: -0.013,–
CRK (UniProt P46108),inactive: -0.046,inactive: -0.097,active: -0.887,inactive: -0.013,inactive: -0.007,inactive: -0.003,inactive: 0.032,inactive: -0.037,inactive: 0.07,–
CRLF3 (UniProt Q8IUI8),inactive: 0,inactive: -0.047,inactive: -0.079,inactive: 0.008,inactive: -0.122,inactive: -0.166,inactive: 0.013,inactive: -0.001,inactive: -0.035,–
COX20 isoform 2 (UniProt Q5RI15),inactive: -0.019,inactive: 0.043,inactive: -0.022,inactive: -0.055,inactive: 0.016,inactive: 0.006,inactive: 0,inactive: -0.018,inactive: 0.019,–
CPNE7 (UniProt Q9UBL6),inactive: -0.012,inactive: -0.022,inactive: -0.037,inactive: -0.019,–,inactive: -0.017,inactive: -0.002,inactive: -0.096,inactive: -0.031,inactive: -0.061
CRYM-AS1 (UniProt A6NIL9),inactive: 0.13,inactive: 0.172,inactive: -0.017,inactive: -0.063,inactive: -0.108,inactive: -0.088,inactive: 0.168,inactive: 0.054,inactive: -0.099,–
CS (UniProt O75390),inactive: 0.02,inactive: -0.004,inactive: 0.002,inactive: -0.04,inactive: -0.178,inactive: -0.148,inactive: -0.069,inactive: -0.05,inactive: 0.008,–
COX5B (UniProt P10606),inactive: 0.008,inactive: -0.012,inactive: -0.079,inactive: 0,inactive: 0.106,active: 0.428,inactive: -0.082,inactive: -0.071,inactive: 0.204,–
CPEB4 (UniProt Q17RY0),inactive: -0.025,inactive: -0.014,inactive: -0.158,inactive: -0.01,–,–,inactive: 0.09,inactive: 0.02,inactive: 0.012,–
COMMD1 (UniProt Q8N668),inactive: -0.033,inactive: -0.083,–,inactive: 0.036,inactive: 0.06,inactive: -0.177,inactive: 0.19,inactive: 0.046,inactive: 0.006,–
COX15 (UniProt Q7KZN9),inactive: 0.022,inactive: -0.04,inactive: 0.027,inactive: -0.03,inactive: -0.036,inactive: -0.04,inactive: 0.001,inactive: -0.022,inactive: 0.008,–

# Record cards (already shown). Order of values: log2 fold change [1]	log2 fold change [2]	log2 fold change [3]	log2 fold change [4]	log2 fold change [5]	log2 fold change [6]	log2 fold change [7]	log2 fold change [8]	log2 fold change [9]	log2 fold change [10]
# CRLF3 (UniProt Q8IUI8) as listed: inactive: 0	inactive: -0.047	inactive: -0.079	inactive: 0.008	inactive: -0.122	inactive: -0.166	inactive: 0.013	inactive: -0.001	inactive: -0.035	–
# CRYM-AS1 (UniProt A6NIL9) as listed: inactive: 0.13	inactive: 0.172	inactive: -0.017	inactive: -0.063	inactive: -0.108	inactive: -0.088	inactive: 0.168	inactive: 0.054	inactive: -0.099	–

# Further entries:

Target,log2 fold change [1],log2 fold change [2],log2 fold change [3],log2 fold change [4],log2 fold change [5],log2 fold change [6],log2 fold change [7],log2 fold change [8],log2 fold change [9],log2 fold change [10]
COQ10B (UniProt Q9H8M1),inactive: -0.068,inactive: 0.2,–,inactive: -0.042,inactive: -0.149,–,inactive: 0.326,inactive: 0.091,–,–
CSNK1D (UniProt P48730),inactive: -0.041,inactive: 0.002,active: 0.768,inactive: 0.216,inactive: -0.001,inactive: -0.138,inactive: 0.077,inactive: 0.13,inactive: 0.063,–
COX5A (UniProt P20674),inactive: 0.041,inactive: 0.008,inactive: -0.09,inactive: -0.053,inactive: -0.103,inactive: 0.058,inactive: -0.069,inactive: -0.042,inactive: 0.122,–
COPS3 (UniProt Q9UNS2),inactive: 0.029,inactive: 0.011,inactive: -0.023,inactive: -0.096,inactive: -0.014,inactive: 0.028,inactive: -0.065,inactive: -0.046,inactive: -0.003,–
COMP (UniProt P49747),inactive: 0.055,inactive: 0.278,inactive: 0.164,inactive: -0.024,–,inactive: -0.056,inactive: 0.114,inactive: -0.021,inactive: -0.437,–
COQ7 (UniProt Q99807),inactive: 0.08,inactive: 0.021,inactive: -0.064,inactive: -0.03,inactive: 0.01,inactive: -0.034,inactive: 0,inactive: -0.016,inactive: -0.035,–
CPT1A (UniProt P50416),inactive: -0.163,inactive: -0.024,inactive: -0.103,inactive: 0.05,inactive: 0.049,inactive: 0.195,inactive: -0.03,inactive: 0.06,inactive: -0.047,–
COX7B (UniProt P24311),inactive: 0.045,inactive: 0.074,inactive: 0.034,–,inactive: -0.011,inactive: 0.112,–,inactive: -0.139,inactive: 0.266,–
CSK (UniProt P41240),inactive: -0.016,inactive: 0.074,inactive: 0.111,inactive: 0.011,inactive: -0.034,inactive: -0.131,inactive: 0.031,inactive: 0,inactive: -0.011,–
CPQ (UniProt Q9Y646),inactive: 0.095,inactive: 0.01,inactive: -0.034,inactive: -0.011,inactive: 0.003,inactive: 0.049,inactive: -0.032,inactive: 0.007,inactive: 0.006,–
COL6A1 (UniProt P12109),inactive: 0.029,inactive: 0.332,inactive: 0.077,inactive: -0.089,–,inactive: 0.195,inactive: 0.071,inactive: 0.025,inactive: -0.125,inactive: 0.097
CRYM (UniProt Q14894),–,–,–,–,inactive: -0.285,inactive: 0.081,–,–,inactive: 0.11,–
CRCP (UniProt O75575),inactive: -0.018,inactive: -0.024,–,–,inactive: -0.115,–,–,inactive: 0.008,inactive: -0.075,inactive: 0.009
COX17 (UniProt Q14061),inactive: -0.14,–,inactive: -0.052,inactive: 0.41,inactive: -0.158,inactive: 0.019,inactive: -0.196,inactive: -0.014,inactive: 0.086,–
CRYAB (UniProt P02511),inactive: -0.305,–,inactive: -0.031,–,inactive: -0.31,–,–,inactive: 0.136,–,–
CSNK1G1 (UniProt Q9HCP0),–,inactive: -0.011,–,inactive: -0.28,inactive: -0.114,inactive: -0.069,inactive: -0.015,–,–,inactive: -0.075
